Measured values reported in the supplement of paper PMC10849652.
Some of the results follow.

By UniProt entry, the sequences of proteins in these tests, tags left out. Where a name states a change or a piece, a line headed by the entry shows the natural chain unless it says otherwise.
UniProt P31930: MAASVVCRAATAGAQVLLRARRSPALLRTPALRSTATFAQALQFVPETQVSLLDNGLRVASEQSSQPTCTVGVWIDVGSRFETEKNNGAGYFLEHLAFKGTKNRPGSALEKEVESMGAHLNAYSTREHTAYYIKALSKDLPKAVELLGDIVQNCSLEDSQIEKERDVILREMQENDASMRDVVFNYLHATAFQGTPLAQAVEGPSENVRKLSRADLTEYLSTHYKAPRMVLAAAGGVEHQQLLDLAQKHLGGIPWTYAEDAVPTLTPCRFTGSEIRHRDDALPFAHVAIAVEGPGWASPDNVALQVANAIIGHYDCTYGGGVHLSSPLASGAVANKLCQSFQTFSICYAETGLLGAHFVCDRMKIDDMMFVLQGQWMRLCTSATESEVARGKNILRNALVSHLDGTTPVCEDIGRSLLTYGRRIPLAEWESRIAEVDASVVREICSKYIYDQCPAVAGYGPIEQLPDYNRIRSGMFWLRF
UniProt O60763: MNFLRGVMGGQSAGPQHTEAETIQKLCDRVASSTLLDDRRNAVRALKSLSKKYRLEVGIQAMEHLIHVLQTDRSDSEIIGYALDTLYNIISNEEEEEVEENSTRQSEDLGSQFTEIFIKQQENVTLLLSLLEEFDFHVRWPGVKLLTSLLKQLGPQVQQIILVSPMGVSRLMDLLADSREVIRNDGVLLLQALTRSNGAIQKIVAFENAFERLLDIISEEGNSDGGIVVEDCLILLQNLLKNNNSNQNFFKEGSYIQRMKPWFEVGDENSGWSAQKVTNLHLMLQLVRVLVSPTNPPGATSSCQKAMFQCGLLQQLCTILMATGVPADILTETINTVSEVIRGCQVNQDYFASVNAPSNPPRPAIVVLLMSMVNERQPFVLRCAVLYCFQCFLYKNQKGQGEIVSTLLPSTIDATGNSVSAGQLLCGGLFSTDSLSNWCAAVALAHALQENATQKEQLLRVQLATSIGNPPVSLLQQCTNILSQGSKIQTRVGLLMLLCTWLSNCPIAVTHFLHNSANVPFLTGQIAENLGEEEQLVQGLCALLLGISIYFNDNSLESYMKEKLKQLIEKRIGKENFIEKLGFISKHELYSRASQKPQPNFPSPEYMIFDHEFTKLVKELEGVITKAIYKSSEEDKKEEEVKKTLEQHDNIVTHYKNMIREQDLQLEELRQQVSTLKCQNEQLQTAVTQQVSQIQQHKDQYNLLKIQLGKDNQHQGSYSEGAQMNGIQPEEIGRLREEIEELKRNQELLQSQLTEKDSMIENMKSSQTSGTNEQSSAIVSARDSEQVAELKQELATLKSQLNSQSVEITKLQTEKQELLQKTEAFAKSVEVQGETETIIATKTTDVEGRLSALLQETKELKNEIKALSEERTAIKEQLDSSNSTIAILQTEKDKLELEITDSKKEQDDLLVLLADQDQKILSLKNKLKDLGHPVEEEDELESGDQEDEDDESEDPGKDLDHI
UniProt Q86UV5: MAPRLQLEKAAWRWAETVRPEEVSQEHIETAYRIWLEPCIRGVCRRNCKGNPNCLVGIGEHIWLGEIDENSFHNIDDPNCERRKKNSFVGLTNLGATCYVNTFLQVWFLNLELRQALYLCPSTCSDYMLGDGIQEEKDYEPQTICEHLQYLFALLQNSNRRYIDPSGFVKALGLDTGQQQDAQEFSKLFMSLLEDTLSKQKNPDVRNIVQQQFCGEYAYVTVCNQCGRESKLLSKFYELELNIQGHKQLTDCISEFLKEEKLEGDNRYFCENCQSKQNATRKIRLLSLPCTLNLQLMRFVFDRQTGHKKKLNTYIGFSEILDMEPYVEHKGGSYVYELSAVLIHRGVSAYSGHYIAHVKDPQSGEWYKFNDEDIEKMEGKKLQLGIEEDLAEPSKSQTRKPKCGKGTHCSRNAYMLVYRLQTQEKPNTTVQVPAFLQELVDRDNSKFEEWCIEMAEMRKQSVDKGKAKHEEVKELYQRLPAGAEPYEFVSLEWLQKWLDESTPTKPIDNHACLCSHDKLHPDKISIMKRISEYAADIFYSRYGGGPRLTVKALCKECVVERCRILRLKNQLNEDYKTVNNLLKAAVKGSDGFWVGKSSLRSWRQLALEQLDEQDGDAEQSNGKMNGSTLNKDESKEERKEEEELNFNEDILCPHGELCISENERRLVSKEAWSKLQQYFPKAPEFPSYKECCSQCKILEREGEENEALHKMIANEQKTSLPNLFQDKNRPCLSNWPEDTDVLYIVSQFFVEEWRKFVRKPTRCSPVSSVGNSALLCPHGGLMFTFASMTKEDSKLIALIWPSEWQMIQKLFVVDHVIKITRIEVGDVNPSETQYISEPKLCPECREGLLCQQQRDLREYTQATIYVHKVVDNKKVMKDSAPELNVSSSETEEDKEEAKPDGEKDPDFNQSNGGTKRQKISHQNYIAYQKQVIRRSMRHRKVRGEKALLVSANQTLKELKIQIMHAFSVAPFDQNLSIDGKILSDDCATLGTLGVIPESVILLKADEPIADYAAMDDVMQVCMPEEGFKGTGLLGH
UniProt P10746: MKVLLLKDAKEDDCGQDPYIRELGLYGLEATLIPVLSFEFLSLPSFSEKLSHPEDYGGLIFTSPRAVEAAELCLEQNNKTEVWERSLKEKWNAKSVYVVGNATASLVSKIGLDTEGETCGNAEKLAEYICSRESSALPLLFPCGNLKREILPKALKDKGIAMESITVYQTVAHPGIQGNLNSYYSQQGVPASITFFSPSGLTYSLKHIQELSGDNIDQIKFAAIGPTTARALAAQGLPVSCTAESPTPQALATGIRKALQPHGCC
UniProt P51784: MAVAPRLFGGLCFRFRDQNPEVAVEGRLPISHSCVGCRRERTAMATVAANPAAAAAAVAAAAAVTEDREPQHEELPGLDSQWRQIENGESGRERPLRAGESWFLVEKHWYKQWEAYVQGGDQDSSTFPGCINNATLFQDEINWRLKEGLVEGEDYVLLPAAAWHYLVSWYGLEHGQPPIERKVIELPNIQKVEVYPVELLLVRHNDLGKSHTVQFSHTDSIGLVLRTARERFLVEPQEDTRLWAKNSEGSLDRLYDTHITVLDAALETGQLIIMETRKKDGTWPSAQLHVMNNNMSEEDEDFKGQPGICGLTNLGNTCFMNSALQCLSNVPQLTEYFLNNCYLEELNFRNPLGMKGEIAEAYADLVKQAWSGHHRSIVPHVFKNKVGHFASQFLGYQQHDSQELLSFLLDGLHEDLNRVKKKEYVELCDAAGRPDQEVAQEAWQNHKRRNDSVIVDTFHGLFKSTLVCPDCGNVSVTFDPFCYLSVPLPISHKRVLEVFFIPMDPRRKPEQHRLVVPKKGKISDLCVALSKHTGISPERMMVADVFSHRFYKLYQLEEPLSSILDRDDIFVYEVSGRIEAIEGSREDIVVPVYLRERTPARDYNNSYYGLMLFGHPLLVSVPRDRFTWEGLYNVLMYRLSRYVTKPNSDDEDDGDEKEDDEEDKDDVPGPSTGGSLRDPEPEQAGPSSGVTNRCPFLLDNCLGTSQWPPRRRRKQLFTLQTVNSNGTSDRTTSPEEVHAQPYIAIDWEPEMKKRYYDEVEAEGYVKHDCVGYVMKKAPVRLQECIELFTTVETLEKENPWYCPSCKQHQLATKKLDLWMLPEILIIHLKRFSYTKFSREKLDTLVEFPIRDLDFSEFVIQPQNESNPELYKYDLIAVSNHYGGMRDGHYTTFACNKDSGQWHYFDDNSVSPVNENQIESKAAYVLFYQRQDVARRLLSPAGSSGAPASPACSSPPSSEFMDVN
UniProt O94763, whole entry, looked up: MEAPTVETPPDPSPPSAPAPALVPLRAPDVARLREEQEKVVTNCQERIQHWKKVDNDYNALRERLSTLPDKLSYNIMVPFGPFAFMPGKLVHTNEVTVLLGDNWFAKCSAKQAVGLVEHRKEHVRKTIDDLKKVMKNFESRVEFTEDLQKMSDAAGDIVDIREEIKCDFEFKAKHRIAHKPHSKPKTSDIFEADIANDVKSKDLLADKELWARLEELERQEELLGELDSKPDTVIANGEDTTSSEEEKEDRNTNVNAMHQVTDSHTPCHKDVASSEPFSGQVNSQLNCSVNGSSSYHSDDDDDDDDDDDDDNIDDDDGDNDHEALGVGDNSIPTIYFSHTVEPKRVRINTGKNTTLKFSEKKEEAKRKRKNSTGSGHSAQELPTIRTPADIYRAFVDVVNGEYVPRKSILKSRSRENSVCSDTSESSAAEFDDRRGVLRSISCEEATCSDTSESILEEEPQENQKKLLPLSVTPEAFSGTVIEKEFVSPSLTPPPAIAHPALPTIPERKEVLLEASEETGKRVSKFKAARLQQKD
UniProt Q9Y5J1: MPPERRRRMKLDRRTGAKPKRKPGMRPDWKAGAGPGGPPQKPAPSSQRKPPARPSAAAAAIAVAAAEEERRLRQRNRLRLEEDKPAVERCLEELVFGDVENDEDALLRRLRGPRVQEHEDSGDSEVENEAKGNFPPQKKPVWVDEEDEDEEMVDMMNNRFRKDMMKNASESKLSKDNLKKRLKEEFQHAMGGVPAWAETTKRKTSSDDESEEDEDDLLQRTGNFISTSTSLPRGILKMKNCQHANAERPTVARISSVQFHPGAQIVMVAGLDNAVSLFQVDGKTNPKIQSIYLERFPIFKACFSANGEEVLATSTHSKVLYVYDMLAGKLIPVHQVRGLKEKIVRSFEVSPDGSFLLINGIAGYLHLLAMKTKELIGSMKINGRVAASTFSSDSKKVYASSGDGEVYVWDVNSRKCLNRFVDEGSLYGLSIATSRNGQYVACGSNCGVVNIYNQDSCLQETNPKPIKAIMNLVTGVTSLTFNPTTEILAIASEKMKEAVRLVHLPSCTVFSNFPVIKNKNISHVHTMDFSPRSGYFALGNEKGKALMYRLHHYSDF
UniProt Q9BZM6: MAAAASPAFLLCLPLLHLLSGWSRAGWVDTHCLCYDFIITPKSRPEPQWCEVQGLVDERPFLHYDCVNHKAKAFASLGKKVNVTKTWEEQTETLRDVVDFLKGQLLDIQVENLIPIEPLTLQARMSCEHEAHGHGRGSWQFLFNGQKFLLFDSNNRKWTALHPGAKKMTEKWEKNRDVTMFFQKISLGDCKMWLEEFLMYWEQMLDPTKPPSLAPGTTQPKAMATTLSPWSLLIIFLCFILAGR
UniProt Q9NWZ5: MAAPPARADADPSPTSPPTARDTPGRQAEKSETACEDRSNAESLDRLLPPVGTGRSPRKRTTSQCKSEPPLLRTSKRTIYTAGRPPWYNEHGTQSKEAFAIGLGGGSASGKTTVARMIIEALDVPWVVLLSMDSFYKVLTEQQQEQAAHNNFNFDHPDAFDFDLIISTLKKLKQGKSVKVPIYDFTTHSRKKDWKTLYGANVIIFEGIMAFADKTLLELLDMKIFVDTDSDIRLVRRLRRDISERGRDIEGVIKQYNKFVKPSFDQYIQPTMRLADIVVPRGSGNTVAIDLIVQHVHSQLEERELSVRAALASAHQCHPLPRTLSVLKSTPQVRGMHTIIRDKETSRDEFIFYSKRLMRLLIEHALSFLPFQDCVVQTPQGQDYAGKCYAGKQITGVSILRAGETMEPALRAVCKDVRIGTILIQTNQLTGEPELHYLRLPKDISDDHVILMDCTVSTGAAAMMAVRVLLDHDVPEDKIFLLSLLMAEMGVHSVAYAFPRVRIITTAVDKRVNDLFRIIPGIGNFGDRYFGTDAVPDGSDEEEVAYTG
UniProt Q96RL1: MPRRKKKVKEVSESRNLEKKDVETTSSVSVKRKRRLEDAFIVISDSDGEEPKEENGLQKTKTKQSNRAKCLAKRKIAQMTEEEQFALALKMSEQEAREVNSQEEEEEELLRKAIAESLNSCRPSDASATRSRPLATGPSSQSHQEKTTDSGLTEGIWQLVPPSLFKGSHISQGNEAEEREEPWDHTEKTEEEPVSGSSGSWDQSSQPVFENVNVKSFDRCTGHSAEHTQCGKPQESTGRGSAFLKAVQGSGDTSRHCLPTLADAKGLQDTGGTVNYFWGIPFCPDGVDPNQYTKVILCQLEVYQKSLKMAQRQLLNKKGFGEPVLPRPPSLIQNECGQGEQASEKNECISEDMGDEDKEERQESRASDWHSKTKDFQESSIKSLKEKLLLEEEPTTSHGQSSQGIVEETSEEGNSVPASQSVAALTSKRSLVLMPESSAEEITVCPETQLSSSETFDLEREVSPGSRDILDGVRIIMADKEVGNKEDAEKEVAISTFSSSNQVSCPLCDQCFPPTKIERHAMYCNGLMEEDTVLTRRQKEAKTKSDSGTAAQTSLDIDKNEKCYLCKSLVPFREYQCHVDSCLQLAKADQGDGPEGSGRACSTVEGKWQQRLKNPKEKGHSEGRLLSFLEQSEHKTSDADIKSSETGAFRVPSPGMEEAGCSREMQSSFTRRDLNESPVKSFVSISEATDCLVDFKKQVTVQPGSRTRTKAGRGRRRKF
UniProt A6NIH7: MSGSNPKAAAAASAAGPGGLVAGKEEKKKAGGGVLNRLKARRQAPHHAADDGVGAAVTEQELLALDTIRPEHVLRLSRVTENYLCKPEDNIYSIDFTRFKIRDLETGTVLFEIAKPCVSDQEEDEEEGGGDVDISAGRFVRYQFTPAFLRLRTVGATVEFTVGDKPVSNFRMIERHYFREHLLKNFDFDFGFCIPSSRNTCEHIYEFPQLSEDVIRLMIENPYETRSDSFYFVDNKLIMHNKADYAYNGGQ

compound: C[C@H](Nc1ncnc2nc[nH]c12)c1cc2cccc(Cl)c2c(=O)n1-c1ccccc1 [duvelisib]; assay: log2 fold change, soluble protein after heating vs DMSO (PISA); higher = thermal stabilisation; K562 lysate, 10 uM; active = over 0.2 and 3.5 SD of the protein, either way, in both replicates (recomputed)
In short: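 The values are log-two fold changes in thermal stability compared with solvent controls and come from duplicates. They were obtained by TMTpro 16plex LC-MS/MS, with channel sums equalised, on the supernatant after 21,000xg for 90 min. That supernatant came from crude K562 extract at 1 mg/mL protein treated with 10 μM compound for 30 min, heated for 3 min across 48°C-58°C, pooled and brought to 0.5% NP-40 at 4°C.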

log2 fold change, inactive:
UQCRC1 (UniProt P31930) -0.011
VDAC2 (UniProt Q5JSD1) -0.006
USO1 (UniProt O60763) -0.169
ULK3 isoform 4 (UniProt Q6PHR2) 0.065
USP1 (UniProt O94782) -0.059
VCP (UniProt P55072) 0.013
USP48 (UniProt Q86UV5) -0.022
UQCRFS1 (UniProt P47985) 0.011
VASP (UniProt P50552) 0.047
UROS (UniProt P10746) 0.013
UGP2 (UniProt Q16851) -0.011
UVRAG (UniProt Q9P2Y5) 0.131
UNC5B (UniProt Q8IZJ1) -0.048
USP11 (UniProt P51784) 0.039
USP34 (UniProt Q70CQ2) 0.004
URI1 isoform 4 (UniProt O94763) -0.112
USO1 isoform 2 (UniProt O60763) 0.003
UTP18 (UniProt Q9Y5J1) -0.065
ULBP1 (UniProt Q9BZM6) -0.021
UQCRH (UniProt P07919) -0.045
UCKL1 (UniProt Q9NWZ5) -0.019
UIMC1 (UniProt Q96RL1) 0.034
UNC119B (UniProt A6NIH7) 0.049

Reprinted at random: two records from the list, in no set order.
log2 fold change, inactive:
UQCRC1 (UniProt P31930) -0.011
UROS (UniProt P10746) 0.013
